Test results from the supplement of paper PMC3334620.
Over roughly 33,000 sequences, “E-score (-0.5 to 0.5)” has its median near -0.015; the highest 2% begin near 0.3. The list shows a part of the results.

molecular target: T1, Abf1 (UniProt P14164); assay: PBM E-score (8-mer binding enrichment) (E-score (-0.5 to 0.5)); higher = stronger / more preferred TF binding; conditions: protein concentration: 200 nM; construct: GST-full length
T1 sequence: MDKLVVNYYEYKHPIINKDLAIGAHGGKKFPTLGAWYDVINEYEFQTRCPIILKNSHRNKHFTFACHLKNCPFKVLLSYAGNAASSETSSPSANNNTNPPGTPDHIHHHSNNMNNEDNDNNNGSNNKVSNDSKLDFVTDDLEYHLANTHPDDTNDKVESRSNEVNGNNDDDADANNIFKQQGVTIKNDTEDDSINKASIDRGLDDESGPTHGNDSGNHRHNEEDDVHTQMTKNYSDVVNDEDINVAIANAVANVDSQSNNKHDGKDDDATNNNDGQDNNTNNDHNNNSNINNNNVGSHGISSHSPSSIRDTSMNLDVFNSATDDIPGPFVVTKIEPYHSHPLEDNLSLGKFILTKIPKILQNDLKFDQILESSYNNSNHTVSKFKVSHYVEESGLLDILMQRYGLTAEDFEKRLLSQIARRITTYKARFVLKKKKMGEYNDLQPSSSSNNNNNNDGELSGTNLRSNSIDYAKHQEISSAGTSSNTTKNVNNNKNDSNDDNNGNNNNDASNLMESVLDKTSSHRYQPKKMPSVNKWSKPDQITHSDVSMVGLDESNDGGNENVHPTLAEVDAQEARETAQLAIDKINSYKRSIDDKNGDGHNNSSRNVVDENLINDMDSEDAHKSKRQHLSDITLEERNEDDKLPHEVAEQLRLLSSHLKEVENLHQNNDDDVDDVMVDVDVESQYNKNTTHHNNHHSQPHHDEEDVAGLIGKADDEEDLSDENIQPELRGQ
In short: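 For each ungapped eight-base word taken together with its reverse complement, the Universal PBM Analysis Suite assigned an E-score. Binding data came from GST-tagged yeast transcription factors, applied at about 100-200 nM, on universal all-10-mer Agilent arrays made double-stranded by primer extension. Fluorescent anti-GST marked bound protein, and scans were normalised with masliner.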

| Sequence | PBM E-score |
| --- | --- |
| CTAGGACA | 0.00967 |
| AAGACTCT | -0.133 |
| GGTTGTCA | 0.117 |
| AGGACCTC | -0.165 |
| TGCATAAA | 0.0266 |
| CCGACTTC | -0.25 |
| GCATTTGA | 0.103 |
| ACTTCGTC | 0.227 |
| AGTTCCGA | 0.0146 |
| ACGGGGTA | 0.04 |
| CGCGGCAC | -0.00367 |
| CACGAAGC | 0.201 |
| ACTTGCCT | -0.0155 |
| GTTTCCCA | 0.0184 |
| GATGCGAC | 0.108 |
| AAAATTCC | -0.0445 |
| ATGACAAC | 0.343 |
| AAGCGACT | 0.041 |
| GCTCAACA | -0.104 |
| ACAGTCGT | 0.13 |
| GAACAGCA | -0.0269 |
| GTGGCGAA | -0.0215 |

Part of the list above, as labelled records.
CTAGGACA
  PBM E-score: 0.00967
AAGACTCT
  PBM E-score: -0.133
GATGCGAC
  PBM E-score: 0.108
AAAATTCC
  PBM E-score: -0.0445

More results follow.

| Sequence | PBM E-score |
| --- | --- |
| GAAACGTA | 0.0177 |
| CCGAGGAC | -0.0671 |
| GGAGAGCC | -0.293 |
| AACGTGTC | 0.0853 |
| GAGGGAAC | -0.046 |
| GAGGTAAA | -0.107 |
| ACGGTATA | 0.204 |
| CCGTAACG | -0.0416 |
| TCAGGAGA | 0.0741 |
| GGAACAAC | -0.0393 |
| ATCCTGCC | -0.101 |
| ACGTTGGG | 0.0255 |
| GCTTACAC | 0.0186 |
| CCGCTCAC | -0.195 |
| ACTTAAGA | 0.132 |
| CCGTTTGA | 0.0879 |
| CCGTCTGA | 0.186 |
| ACAATAGC | 0.0218 |
| GTGCGGCA | 0.232 |
| CTGGCGGA | -0.122 |
| CGATGACA | 0.319 |
| GAAACATA | 0.0166 |

Rewritten as labelled records: entries from further up
GGAACAAC
  PBM E-score: -0.0393
ATCCTGCC
  PBM E-score: -0.101

(cont.)

| Sequence | PBM E-score |
| --- | --- |
| AGGATGTC | 0.126 |
| ATCAGCTA | -0.0482 |
| AGTTCAGA | -0.0713 |
| AGGACCTG | -0.203 |
| CGCTCACA | -0.0723 |
| CTAGCCCA | -0.227 |
| CCATGAAG | 0.0123 |
| ATAGACGA | 0.225 |
| CTACAACA | -0.0578 |
| ACTATTGC | -0.00113 |
| AAGTGAAA | -0.0619 |
| GCGCACTA | 0.0586 |
| GCGCGCCC | -0.116 |
| GACCAGAC | 0.0801 |
| CGGTCCCC | -0.243 |
| ACGCGGAG | -0.162 |
| GGGCCGTA | 0.244 |
| AGGAGATA | -0.0389 |
| CGTCTTAG | -0.0248 |
| CGCTGTAG | 0.126 |
| AACTCAGG | -0.00462 |
| ATAGCAGG | 0.0166 |

| Sequence | PBM E-score |
| --- | --- |
| AGGATTTG | -0.053 |
| TGACGTAA | 0.13 |
| CGCCTTGC | 0.00414 |
| ATAATGAA | 0.0482 |
| CAGGCACC | -0.178 |
| ATTTAGGA | 0.0948 |
| AAGAGTCC | -0.0869 |
| GCCTCTGA | -0.316 |
| ACCCAGAA | -0.0336 |
| AGGACTAC | -0.265 |
| AAATTAGG | 0.142 |
| ATCCCTGC | -0.0438 |
| AATAATTC | 0.113 |
| ACATGCCA | -0.0572 |
| CCGCTCTC | -0.168 |
| CTCGTCAG | 0.182 |
| GCTAGGCA | -0.252 |
| ACACCTTC | -0.079 |
| AGCCGCGG | -0.131 |
| AGGACGGC | 0.0783 |
| ATTCGACA | -0.0448 |
| GGGGGAGA | -0.297 |

| Sequence | PBM E-score |
| --- | --- |
| CATAAAAC | 0.0891 |
| CCAGCTGA | 0.0075 |
| AACCCTTA | 0.139 |
| TACAGCAA | -0.0284 |
| AACTGAAC | -0.0135 |
| CGGGTTCC | -0.0803 |
| AGGAAGGA | -0.244 |
| CATGGCGA | 0.00987 |
| ATGTTGGG | -0.15 |
| CTACCACA | -0.173 |
| ATATGACA | 0.2 |
| CCGCCTGC | 0.0226 |
| CCACTCAA | 0.0392 |
| TCACAACA | 0.115 |
| GTCGCCAA | 0.0446 |
| GAATTTAA | 0.0623 |
| TAGAAACA | -0.0416 |
| TCGAGTCA | 0.0523 |
| GATATTGA | 0.201 |
| CACCAACA | -0.0828 |
| AAGAACTA | 0.134 |
| AGTGGCTC | -0.209 |
